Tested on: 3DIV hippocampal mouse neurons
Test: Ca2+ influx assay upon GABA application in immature
Format: cell-based
Details: 10 and 100 μM

In the case of NS(=O)(=O)c1cc(C(=O)O)c(NCc2ccco2)cc1Cl [furosemide], the “level of alleged NKCC1 inhibition in the Ca2+ influx assay compared with the Cl− influx assay” value was “higher potency than in the Cl^− influx assay”.
